The results in this text go back to the supplement of paper PMC12819154, “High-throughput peptide-centric local stability assay extends protein–ligand identification to membrane proteins, tissues and bacteria” (Nature Structural & Molecular Biology, 2025).

Chains of the proteins cited; added tags and fusions are not shown. Lines headed by an entry give the natural chain unless they say otherwise; changes in a name come on top.
UniProt P55263: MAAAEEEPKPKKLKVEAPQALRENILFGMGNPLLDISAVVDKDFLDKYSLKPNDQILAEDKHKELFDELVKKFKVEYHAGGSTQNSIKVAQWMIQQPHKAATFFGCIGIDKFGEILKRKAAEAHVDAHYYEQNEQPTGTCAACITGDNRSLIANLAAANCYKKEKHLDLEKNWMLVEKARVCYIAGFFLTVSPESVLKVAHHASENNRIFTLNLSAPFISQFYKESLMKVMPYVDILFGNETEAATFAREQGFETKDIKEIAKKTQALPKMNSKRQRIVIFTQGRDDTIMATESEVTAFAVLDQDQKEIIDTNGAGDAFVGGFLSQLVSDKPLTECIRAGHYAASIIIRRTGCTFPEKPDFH
UniProt P61163, whole entry: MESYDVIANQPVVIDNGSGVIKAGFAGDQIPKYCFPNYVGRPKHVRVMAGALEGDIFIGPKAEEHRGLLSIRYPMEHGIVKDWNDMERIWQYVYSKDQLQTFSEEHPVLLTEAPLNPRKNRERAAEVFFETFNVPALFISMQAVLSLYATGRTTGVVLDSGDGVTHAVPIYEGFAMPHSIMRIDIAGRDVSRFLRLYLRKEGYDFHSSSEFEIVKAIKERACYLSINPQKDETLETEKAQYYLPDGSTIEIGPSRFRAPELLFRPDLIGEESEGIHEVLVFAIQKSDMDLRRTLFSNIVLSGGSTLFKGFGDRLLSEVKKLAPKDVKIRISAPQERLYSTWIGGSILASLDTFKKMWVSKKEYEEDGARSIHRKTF

The other results are listed elsewhere or left out. Most values lie at the level of the controls, where differences are scatter.

Compound in the assay: CN[C@@H]1C[C@H]2O[C@@](C)([C@@H]1OC)n1c3ccccc3c3c4c(c5c6ccccc6n2c5c31)C(=O)NC4 [staurosporine]
In words: log2 fold change of tryptic peptide abundance, ligand vs vehicle (limited proteolysis) (log2 ratio); higher = more trypsin-susceptible (destabilized). As to conditions: ligand concentration: 20 uM; sample: K562 cleared lysate; digestion: 4 min, 22 C (HT-PELSA RT4min, Orbitrap Astral).
For the target “MRPS10 (peptide sequence: FTLLQSVHIYK, peptide start residue: 118) (UniProt P82664)”, the log2 fold change is -0.244. With “ADK (peptide sequence: AAAEEEPKPK, peptide start residue: 2) (UniProt P55263)”, the log2 fold change is -0.128. Consider “UniProt P62841 (peptide sequence: QHSLLKR, peptide start residue: 53)”, for which the log2 fold change was determined as 0.48. As to “UniProt P62875 (peptide sequence: LLNYAPLEK, peptide start residue: 59)”, the log2 fold change was -0.0105.

As for “UniProt P62701 (peptide sequence: ITPEEAKYK, peptide start residue: 114)”, the log2 fold change was 0.241. Consider “UniProt P61254 (peptide sequence: KYVIYIER, peptide start residue: 77)”, for which the log2 fold change is -0.174. For the target “UniProt P61163 (peptide sequence: YCFPNYVGRPK, peptide start residue: 33)”, the log2 fold change came out at 0.206.
